The results in this text go back to PMC12538445.

Protein sequences, listed by entry. Tags and fused reporters are not part of them.
UniProt P09874: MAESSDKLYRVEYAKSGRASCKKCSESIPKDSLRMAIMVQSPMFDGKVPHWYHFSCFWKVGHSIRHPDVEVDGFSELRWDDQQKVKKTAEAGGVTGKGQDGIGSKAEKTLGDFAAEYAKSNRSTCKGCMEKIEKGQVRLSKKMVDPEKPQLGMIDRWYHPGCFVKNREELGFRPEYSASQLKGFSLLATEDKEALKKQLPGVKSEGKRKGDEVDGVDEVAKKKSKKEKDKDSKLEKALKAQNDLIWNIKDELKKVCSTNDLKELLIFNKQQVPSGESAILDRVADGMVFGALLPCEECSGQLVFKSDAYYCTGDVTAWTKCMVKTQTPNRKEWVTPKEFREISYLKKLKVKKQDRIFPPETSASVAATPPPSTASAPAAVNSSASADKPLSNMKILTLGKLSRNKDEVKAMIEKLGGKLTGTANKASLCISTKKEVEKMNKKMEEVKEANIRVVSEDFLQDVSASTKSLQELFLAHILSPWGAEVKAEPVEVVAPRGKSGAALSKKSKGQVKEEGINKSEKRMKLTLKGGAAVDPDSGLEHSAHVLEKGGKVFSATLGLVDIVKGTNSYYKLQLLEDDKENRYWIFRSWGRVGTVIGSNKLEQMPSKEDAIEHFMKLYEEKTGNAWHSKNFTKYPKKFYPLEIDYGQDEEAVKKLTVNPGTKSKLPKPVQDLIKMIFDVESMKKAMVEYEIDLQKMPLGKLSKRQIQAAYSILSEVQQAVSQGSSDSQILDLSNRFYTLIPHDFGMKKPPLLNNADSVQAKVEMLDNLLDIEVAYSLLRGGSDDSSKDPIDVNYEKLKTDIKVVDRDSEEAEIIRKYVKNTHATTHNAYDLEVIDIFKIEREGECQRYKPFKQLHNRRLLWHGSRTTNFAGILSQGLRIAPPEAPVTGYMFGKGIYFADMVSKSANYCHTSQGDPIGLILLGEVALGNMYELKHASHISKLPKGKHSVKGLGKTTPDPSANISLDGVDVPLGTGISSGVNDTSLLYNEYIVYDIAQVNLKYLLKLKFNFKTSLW
UniProt P09429: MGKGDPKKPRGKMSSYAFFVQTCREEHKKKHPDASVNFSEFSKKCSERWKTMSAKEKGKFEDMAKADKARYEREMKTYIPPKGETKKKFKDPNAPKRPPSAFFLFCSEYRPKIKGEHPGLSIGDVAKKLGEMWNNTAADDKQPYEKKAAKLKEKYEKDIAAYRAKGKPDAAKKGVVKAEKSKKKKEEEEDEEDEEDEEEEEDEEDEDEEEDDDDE

No constants are given. Whether binding was seen depends on the method and setting. Binding seen in cells or lysates may run through a third protein. Some binding calls cover weakened binding; strength is not graded here.

The experiment addresses PARP1 (not stated (cell line of this experiment not named; SH-SY5Y human or PC12 rat cells)) (UniProt P09874). Kind of experiment: co-IP; anti-PARP1 antibody (1:200) on protein G or A magnetic beads; precleared lysate (25 mM Tris-Cl pH 7.4, 150 mM NaCl, 1% NP-40) incubated overnight at 4 °C; cells treated with rotenone for 4 h; Western blot for HMGB1.

For the substance “High mobility group box 1 (HMGB1) (from UniProt P09429 1-215)”, the binding result was “binds”.
